This assay in a line: qHTS Assay for Modulators of Lamin A Splicing. To be noted: HeLa LMNA splicing GFP/RFP minigene ratio, 48 h. In outline:
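S3 HeLa cells stably expressing lamin A-EGFP splicing minigene plus DsRed2, 600 cells/well, 48 h compound exposure at 37C. Laser-scanning cytometry; analysed as GFP (500-530 nm)/RFP (575-640 nm) total intensity ratio; 0.5% DMSO vehicle.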
For orientation: Quantitative high-throughput screening tests each substance at several concentrations.

Setting [1] is: measured here: GFP splicing reporter channel.
Where [2] appears, read: measured here: RFP viability control channel.

This is one part of the list. Shown are side measurements of this screen, not its main read-out; they come without a call. The list favours compounds with an active or inconclusive main result. The note in brackets gives the kind of curve behind each potency; many fits are weak.

As usually defined, the AC50 is the concentration giving half of the maximal activity seen. Turning to `CN1CCCC(CC2Oc3ccccc3Sc3ccccc32)C1` (configuration not stated), the AC50 under setting [1] is 14.1 µM [rising, single point].
For the molecule `C=CCNC(=S)N/N=C/c1ccc(-c2cc(Cl)ccc2Cl)o1`, the AC50 under setting [2] was 12.6 µM [falling, partial curve].
For the molecule `CN(C)Cc1ccccc1-c1cc(Nc2ccccc2)ncn1`, the half-maximal activity concentration (AC50) runs as follows: under setting [1], 28.2 µM [falling, single point]; under setting [2], 35.5 µM [falling, single point].
Regarding `O=C(NC(=S)N(CCc1ccccc1)CCc1ccccc1)c1ccco1`, the AC50 under setting [1] was 14.1 µM [rising, single point] and the half-maximal activity concentration (AC50) under setting [2] was 20 µM [rising, partial curve, poor fit].
On to `O=C(CCl)c1ccc2c(c1)CCN2C(=O)C1CCCCC1`, for which the AC50 under setting [2] was 0.00447 µM [falling, full curve, poor fit].
On the same count and under the same terms, the figure for `O=C(CCl)Nc1cn(-c2ccccc2)nc1-c1ccccc1` is 3.55 µM [rising, single point]; for `Cc1ccc(CNC(=O)c2ccc([N+](=O)[O-])o2)cc1` it is 10 µM [falling, partial curve, poor fit].
Consider `COc1nc(C)nc(Cl)c1NC1=NCCN1`, for which the half-maximal activity concentration (AC50) reads like this: under setting [1], 0.398 µM [falling, full curve, poor fit]; under setting [2], 0.398 µM [falling, full curve, poor fit].
Regarding `CCC(Sc1nc(N)c(NC(=O)c2ccc(OC)cc2)c(=O)[nH]1)C(=O)O` (configuration not stated), the AC50 under setting [1] is 3.98 µM [falling, full curve, poor fit].
In the case of `COc1cccc(C(=O)N2CCN(CCCc3ccccc3)CC2)c1OC`, the half-maximal activity concentration (AC50) is 4.47 µM [rising, full curve] under setting [1] and 12.6 µM [rising, partial curve] under setting [2].
For `COc1ccc(-n2ncc3c(NCCCOC(C)C)ncnc32)cc1`, the AC50 under setting [1] was 8.91 µM [falling, partial curve, poor fit].
As to `Cc1cccc(N2CCN(C(c3ccccc3)c3nnnn3CC3CCCO3)CC2)c1C` (configuration not stated), the concentration at half-maximal activity (AC50) reads like this: under setting [1], 12.6 µM [rising, partial curve, poor fit]; under setting [2], 20 µM [rising, single point].
Consider `COc1ccc(Oc2cccc(Cl)c2CNC(=O)CCC(=O)O)cc1`, for which, under setting [2], the AC50 was 0.282 µM [falling, full curve, poor fit].
For `C[C@@H](C(=O)O)c1ccc(N2Cc3ccccc3C2=O)cc1`, the AC50 by setting is: under setting [1], 0.141 µM [falling, full curve]; under setting [2], 0.126 µM [falling, full curve].
In the case of `Cc1ccccc1OCCCC(=O)Nc1nccs1`, the concentration at half-maximal activity (AC50) under setting [2] is 35.5 µM [rising, single point].
Turning to `C=CCSc1nc2ccccc2n1C(=O)/C=C/c1cc(OC)c(OC)c(OC)c1`, the AC50 under setting [1] was 6.31 µM [falling, full curve, poor fit] and the AC50 under setting [2] is 2.24 µM [falling, single point].
Turning to `Cc1ccc(Nc2nc(C(=O)NCCCN3CCOCC3)cs2)cc1`, the AC50 under setting [2] is 35.5 µM [rising, single point].
As to `CCC(=O)N1CCCc2cc(S(=O)(=O)N3CCN(C4CCCCC4)CC3)ccc21`, the AC50 under setting [2] is 0.178 µM [rising, full curve, poor fit].
With `CC(=O)Nc1cccc(NC(=O)c2cc3c(=O)n4cccc(C)c4nc3n2C)c1`, the AC50 under setting [1] was 0.0316 µM [falling, full curve, poor fit] and the half-maximal activity concentration (AC50) under setting [2] was 0.0398 µM [falling, full curve, poor fit].
For `CCc1ccc(N2CC(C(=O)Nc3nccs3)CC2=O)cc1` (configuration not stated), the AC50 under setting [2] is 0.708 µM [falling, full curve, poor fit].
For the molecule `C=CCNC(=S)N/N=C/c1ccc(C(F)(F)F)cc1`, the AC50 under setting [1] was 14.1 µM [rising, partial curve, poor fit].
Regarding `COc1cccc(NC(=O)CCCOc2cc(=O)n(C)c3ccccc23)c1`, the AC50 under setting [2] is 14.1 µM [rising, single point].
`c1ccc(-c2csc3ncnc(NCCCN4CCOCC4)c23)cc1`: under setting [2], the AC50 is 25.1 µM [rising, single point].
For `NC(=O)c1ccc(-c2ncc(-c3ccccc3)o2)cc1`, the concentration at half-maximal activity (AC50) under setting [2] was 35.5 µM [falling, single point].
Regarding `Cc1ccc(S(=O)(=O)N2CCN(Cc3cc(C(C)C)ccc3O)CC2)cc1`, the AC50 under setting [2] is 22.4 µM [rising, single point].
Consider `COc1ccc(N2C(=O)CSC2c2cccs2)cc1` (configuration not stated), for which, under setting [1], the AC50 was 35.5 µM [rising, single point].
With `Cc1nnc(Sc2cc(C(=O)NCCCN(C)Cc3ccccc3)c3ccccc3n2)s1`, the AC50 under setting [2] was 28.2 µM [rising, single point].
Consider `O=C(CSc1ncn[nH]1)Nc1ccc(Cl)c(Cl)c1`, for which the AC50 under setting [2] is 12.6 µM [rising, partial curve, poor fit].
On to `Cc1ccc(C(=O)/C=C/c2ccccc2)o1`, for which the AC50 under setting [1] was 35.5 µM [falling, single point] and the AC50 under setting [2] is 35.5 µM [falling, single point].
Take `CCOC(=O)CCSCC(=O)Nc1cc(C)on1`: the AC50 is 22.4 µM [rising, single point] under setting [1] and 31.6 µM [rising, single point] under setting [2].
Regarding `Cc1ccc(-c2c[n+](CC(=O)Nc3cc(=O)n(C)c(=O)n3C)c3n2CCC3)cc1`, the concentration at half-maximal activity (AC50) under setting [2] is 11.2 µM [rising, partial curve].
Regarding `O=C(Nc1ccc(Nc2ccccc2)cc1)c1ccc(Br)o1`, the half-maximal activity concentration (AC50) is 22.4 µM [rising, single point] under setting [1] and 31.6 µM [rising, single point] under setting [2].
With `Cc1ccc(NC(=S)NCC2CCN(C(C)c3ccccc3)C2)cc1` (configuration not stated), the AC50 under setting [2] was 1.26 µM [falling, full curve, poor fit].
Take `Cc1c(C#N)c(NC(=O)CCl)n(Cc2cccs2)c1C`: the AC50 under setting [2] was 25.1 µM [falling, single point].
For `Cc1[nH]c2ccccc2c1C(=O)CSc1ccc(F)cc1`, the AC50 runs as follows: under setting [1], 12.6 µM [rising, partial curve, poor fit]; under setting [2], 14.1 µM [rising, single point].
As for `OCCC1CN(Cc2nc3c(s2)CCCC3)CCN1Cc1ccsc1` (configuration not stated), the AC50 runs as follows: under setting [1], 11.2 µM [falling, partial curve]; under setting [2], 11.2 µM [falling, partial curve, poor fit].
As for `CCCNc1nc2c(c(=O)n(C)c(=O)n2C)n1CCc1ccccc1`, the AC50 by setting is: under setting [1], 2.51 µM [rising, full curve, poor fit]; under setting [2], 7.94 µM [rising, partial curve].
For the molecule `Cn1c(CCN2CCCCC2)nc2cc(NC(=O)NC3CCCCC3)ccc21`, under setting [2], the concentration at half-maximal activity (AC50) was 14.1 µM [rising, single point].
In the case of `CCOc1ccc(Br)cc1S(=O)(=O)Nc1ccc(N2CCOCC2)cc1`, the concentration at half-maximal activity (AC50) under setting [2] is 12.6 µM [rising, single point].
Take `COc1cc(NS(C)(=O)=O)ccc1Cc1c2ccccc2nc2ccccc12`: the AC50 is, setting by setting: under setting [1], 0.0794 µM [falling, full curve, poor fit]; under setting [2], 0.158 µM [rising, full curve].
Consider `Cc1[nH]c2ccccc2c1C(=O)/C=C/c1ccccc1`, for which the AC50 under setting [1] is 17.8 µM [falling, partial curve, poor fit].
As for `O=S(=O)(c1cccs1)N1CCN(Cc2nc3ccccc3s2)CC1`, the concentration at half-maximal activity (AC50) under setting [2] is 25.1 µM [rising, single point].
In the case of `CCOC(=O)c1ccc(Oc2cc(C)nc(SC)n2)cc1`, the AC50 under setting [2] is 7.08 µM [rising, full curve].
As to `COCc1nnc(NC(C)=O)s1`, under setting [1], the half-maximal activity concentration (AC50) is 0.112 µM [rising, partial curve, poor fit].
As for `COc1cc(NC(=O)c2ccc(OC)c([N+](=O)[O-])c2)ccc1NC(=O)c1cccs1`, the half-maximal activity concentration (AC50) under setting [2] was 0.0708 µM [rising, full curve, poor fit].
Take `Cc1nc(-c2ccc(C)c(N3CCN(C(=O)Nc4cccc(Cl)c4C)CC3)c2)no1`: the half-maximal activity concentration (AC50) is 28.2 µM [falling, partial curve] under setting [1] and 22.4 µM [falling, partial curve, poor fit] under setting [2].
On to `O=C(Cn1c(NCCO)nc2ccccc21)NCCc1ccc(F)cc1`, for which the concentration at half-maximal activity (AC50) is, setting by setting: under setting [1], 15.8 µM [falling, single point]; under setting [2], 2 µM [falling, partial curve].
Consider `CCOC(=O)c1cnc(-n2nc(C)cc2C)nc1NC1CCCCC1`, for which the concentration at half-maximal activity (AC50) under setting [2] is 3.55 µM [rising, full curve].
In the case of `Cc1ccc(-c2nc(N)n(C(=O)c3cccs3)n2)cc1`, the AC50 under setting [2] is 4.47 µM [falling, full curve, poor fit].
Same read-out and setting: the figure for `COc1ccc(Cl)cc1NC(=S)NNC(=O)C1(C)CC1(Cl)Cl` (configuration not stated) is 1 µM [falling, full curve, poor fit].
As to `CC1(C)c2ssc(=S)c2-c2ccccc2N1C(=O)c1ccco1`, the concentration at half-maximal activity (AC50) under setting [1] is 35.5 µM [rising, single point].
`COCCCN(C(=S)Nc1cc(Cl)cc(Cl)c1)C(C)c1ccncc1` (configuration not stated): under setting [2], the half-maximal activity concentration (AC50) is 14.1 µM [rising, single point].
Take `Cc1nc(N2CCC(C)CC2)c2oc3ccccc3c2n1`: the AC50 under setting [1] was 14.1 µM [rising, single point].
On to `CC1=C(C(=O)N2CCCCC2)C(c2cccs2)NC(=O)N1` (configuration not stated), for which the AC50 under setting [1] was 20 µM [rising, single point].
Regarding `COc1cc(/C=C2\SC(=O)NC2=O)ccc1Oc1ccc([N+](=O)[O-])cc1[N+](=O)[O-]`, under setting [1], the AC50 was 11.2 µM [falling, partial curve, poor fit].
On to `O=[N+]([O-])c1ccc(NC(=S)NCCc2ccc(Cl)cc2)cc1`, for which the AC50 runs as follows: under setting [1], 12.6 µM [rising, single point]; under setting [2], 14.1 µM [rising, single point].
With `CCCCNC(C(=O)Nc1ccc(Cl)c([N+](=O)[O-])c1)c1ccccc1` (configuration not stated), the half-maximal activity concentration (AC50) under setting [2] is 10 µM [rising, partial curve, poor fit].
With `COc1ccc(Nc2sc(C(=O)c3ccc(Cl)cc3)c(N)c2C(=O)Nc2ccccc2OC)cc1`, the half-maximal activity concentration (AC50) runs as follows: under setting [1], 22.4 µM [rising, single point]; under setting [2], 25.1 µM [rising, single point].

These data come from PubChem BioAssay AID1487 (National Center for Advancing Translational Sciences (NCATS), 2009).
